Measurements: paper PMC13507205, “FAIMS-GPF XL-MS: crosslinking-mass spectrometry based on gas-phase fractionation” (Nature Communications, 2026)
Results are given in words; binding and its absence hold for the method and conditions named. In cells and extracts the contact can be indirect. Some results given as binding are weak or reduced against the parent protein; the word gives no strength.

Molecular target: T1, Septin 11 (human (endogenous in HeLa)) (UniProt Q9NVA2)
T1 sequence: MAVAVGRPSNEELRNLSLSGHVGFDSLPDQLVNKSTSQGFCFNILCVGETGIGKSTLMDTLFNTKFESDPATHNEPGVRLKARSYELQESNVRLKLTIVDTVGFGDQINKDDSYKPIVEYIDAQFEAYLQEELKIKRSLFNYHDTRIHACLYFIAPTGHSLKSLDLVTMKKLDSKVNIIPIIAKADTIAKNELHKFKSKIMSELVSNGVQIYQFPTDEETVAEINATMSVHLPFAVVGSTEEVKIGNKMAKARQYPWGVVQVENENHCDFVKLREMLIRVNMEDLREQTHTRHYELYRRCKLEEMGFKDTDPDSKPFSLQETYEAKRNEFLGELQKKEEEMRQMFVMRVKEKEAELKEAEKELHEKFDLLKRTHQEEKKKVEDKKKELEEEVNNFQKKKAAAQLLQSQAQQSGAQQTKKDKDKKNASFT
Assay: cross-linking; 'native' HeLa lysate at 1 mg/mL in 20 mM Hepes, 150 mM NaCl, 1.5 mM MgCl2, 0.5 mM DTT, pH 7.8; 2 mM DSSO, 45 min, RT; three replicates; 11-CV FAIMS-GPF nLC-MS/MS

B1: Septin 2 (protein, UniProt Q15019 1-361)
chain: MSKQQPTQFINPETPGYVGFANLPNQVHRKSVKKGFEFTLMVVGESGLGKSTLINSLFLTDLYPERVIPGAAEKIERTVQIEASTVEIEERGVKLRLTVVDTPGYGDAINCRDCFKTIISYIDEQFERYLHDESGLNRRHIIDNRVHCCFYFISPFGHGLKPLDVAFMKAIHNKVNIVPVIAKADTLTLKERERLKKRILDEIEEHNIKIYHLPDAESDEDEDFKEQTRLLKASIPFSVVGSNQLIEAKGKKVRGRLYPWGVVEVENPEHNDFLKLRTMLITHMQDLQEVTQDLHYENFRSERLKRGGRKVENEDMNKDQILLEKEAELRRMQEMIARMQAQMQMQMQGGDGDGGALGHHV
For B1, the binding was “binds”.
